# Test results reported in US6943268B2 (priority 1999, dated 2005).
# At least one compound was matched to its structure with a doubt left.
# Tested on: L-selectin on neutrophils
# Type: cell-based, human
smiles,measurement,value
C[C@H](N)C(=O)NCC(=O)N[C@H]1CSSC[C@@H](C(=O)O)NC(=O)[C@H](CO)NC(=O)[C@H]([C@@H](C)O)NC(=O)[C@H](Cc2ccccc2)NC(=O)[C@H]([C@@H](C)O)NC(=O)[C@H](CCCCN)NC(=O)[C@H](Cc2c[nH]c3ccccc23)NC(=O)[C@H](Cc2ccccc2)NC(=O)[C@H](Cc2ccccc2)NC(=O)[C@H](CC(N)=O)NC(=O)[C@H](CCCCN)NC1=O [Somatostatin],approximate concentration for 100% LOSS of L-selectin from cell surface,~200 uM-
